{"source": "PubChem BioAssay AID1259308 | NCATS, 2017", "assay": "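Genes whose loss raises luciferase production in HEK293 cells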 (primary screen)", "cell system": "human HEK293 embryonic kidney cells stably expressing firefly luciferase (HEK-CMV-Luc2-Hygro)", "reagents": "single siRNA against human genes, 0.8 pmol siRNA per well", "time to read-out": "72 h", "detection": "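Luciferase light (ONE-Glo) measured on one replicate plate set and viability (CellTiter-Glo) on the other, scaled to a negative control siRNA, with robust z-scores and luciferase per cell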", "reading the numbers": "total luciferase, z-score and total luciferase, % of control: higher = more reporter protein produced", "rule for the call": "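Active when the median/MAD z-score for overall luciferase is greater than 3; a gene was taken forward for validation with new siRNAs if at least two of its three siRNAs passed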", "meaning of the calls": "active = raised luciferase; inactive = no rise", "note": "The whole screen tested about 59,000 reagents; this is an unselected part. About 1,510 of them (2.6%) count as active. 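Calls use total luciferase alone and ignore viability, so some active siRNAs may act by altering cell number.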 Reagents against one gene are numbered here. Not all columns of the deposit are shown."}
{"gene": "ANK3", "reagent": 1, "total luciferase, z-score": 1.38, "total luciferase, % of control": 109, "outcome": "inactive"}
{"gene": "ANK3", "reagent": 2, "total luciferase, z-score": 0.522, "total luciferase, % of control": 92.3, "outcome": "inactive"}
{"gene": "ANK3", "reagent": 3, "total luciferase, z-score": -0.282, "total luciferase, % of control": 76.3, "outcome": "inactive"}
{"gene": "ZNF358", "reagent": 1, "total luciferase, z-score": 3.11, "total luciferase, % of control": 144, "outcome": "active"}
{"gene": "ZNF358", "reagent": 2, "total luciferase, z-score": 0.218, "total luciferase, % of control": 86.2, "outcome": "inactive"}
{"gene": "ZNF358", "reagent": 3, "total luciferase, z-score": 3.8, "total luciferase, % of control": 157, "outcome": "active"}
{"gene": "ZNF492", "reagent": 1, "total luciferase, z-score": -0.262, "total luciferase, % of control": 76.7, "outcome": "inactive"}
{"gene": "ZNF492", "reagent": 2, "total luciferase, z-score": -1.23, "total luciferase, % of control": 57.4, "outcome": "inactive"}
{"gene": "ZNF492", "reagent": 3, "total luciferase, z-score": -1.48, "total luciferase, % of control": 52.5, "outcome": "inactive"}
{"gene": "NEUROD4", "reagent": 1, "total luciferase, z-score": -1.01, "total luciferase, % of control": 61.8, "outcome": "inactive"}
{"gene": "NEUROD4", "reagent": 2, "total luciferase, z-score": 0.715, "total luciferase, % of control": 96.1, "outcome": "inactive"}
{"gene": "NEUROD4", "reagent": 3, "total luciferase, z-score": -1.83, "total luciferase, % of control": 45.5, "outcome": "inactive"}

Reagents above with an active call, once more:
{"gene": "ZNF358", "reagent": 1, "total luciferase, z-score": 3.11, "total luciferase, % of control": 144, "outcome": "active"}
{"gene": "ZNF358", "reagent": 3, "total luciferase, z-score": 3.8, "total luciferase, % of control": 157, "outcome": "active"}
